Some results were stated once for a whole list of compounds, not compound by compound.
How the values were obtained:
[1] = biological target: T1, G-CSF receptor (Mus musculus, UniProt P40223); experiment: Luciferase reporter gene assay in G-CSF-responsive NFS60 cells; type: cell-based, murine; conditions: concentration range of 1 to 100 micromolar
T1 construct: they express endogenous G-CSF receptors; endogenous in cells; host or cells: NFS60 murine myeloid cells with a G-CSF-responsive luciferase reporter
T1 sequence (P40223 26-837): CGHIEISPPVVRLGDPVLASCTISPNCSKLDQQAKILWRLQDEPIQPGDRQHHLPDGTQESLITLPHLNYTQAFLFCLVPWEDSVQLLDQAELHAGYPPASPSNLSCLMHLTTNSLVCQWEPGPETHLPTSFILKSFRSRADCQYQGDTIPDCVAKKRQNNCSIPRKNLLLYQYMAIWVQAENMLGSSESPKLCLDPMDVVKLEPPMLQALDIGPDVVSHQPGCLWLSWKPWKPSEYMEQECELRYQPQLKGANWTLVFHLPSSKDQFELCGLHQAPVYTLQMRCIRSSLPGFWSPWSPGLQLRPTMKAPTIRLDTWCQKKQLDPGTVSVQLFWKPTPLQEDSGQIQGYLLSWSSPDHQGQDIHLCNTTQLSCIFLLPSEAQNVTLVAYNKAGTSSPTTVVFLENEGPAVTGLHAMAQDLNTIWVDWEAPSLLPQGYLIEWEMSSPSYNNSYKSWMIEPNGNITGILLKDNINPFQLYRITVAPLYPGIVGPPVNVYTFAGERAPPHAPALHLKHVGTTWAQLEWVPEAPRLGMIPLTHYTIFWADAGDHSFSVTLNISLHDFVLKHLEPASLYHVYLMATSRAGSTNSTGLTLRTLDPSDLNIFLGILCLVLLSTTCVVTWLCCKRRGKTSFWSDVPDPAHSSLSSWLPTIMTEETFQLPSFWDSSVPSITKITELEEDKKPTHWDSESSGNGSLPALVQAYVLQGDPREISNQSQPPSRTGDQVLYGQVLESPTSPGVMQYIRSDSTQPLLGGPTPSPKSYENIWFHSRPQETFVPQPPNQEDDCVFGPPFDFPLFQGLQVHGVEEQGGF
Procedure: Activity of compound 1a is below the threshold of 150% over background. The study was performed as a Luciferase assay configured on the G-CSF-responsive NFS60 cell line as described in Tian et al., Science 281, 257-259 (1998). The experiments shown in FIGS. 2-8 used the same NFS60 cell line.
Compounds of the present invention are tested for potency as agonist of a dimeric cell-surface receptor in a Luciferase reporter gene assay such as described in Tian et al., Science 281. 257-259 (1998). For example, for G-CSF NFS60 cells (Holmes, et al., Proc. Natl. Acad. Sci. USA 82: 6687-6691 (1985)) are selected because they express endogenous G-CSF receptors closely matching the pattern of STAT (signal transducers and activators of transcription) activation observed in primary murine and human bone marrow cells.

[2] = test system: CFU-G; experiment: CFU-G assay (murine assay); type: cell-based; conditions: concentration range of 1 to 100 micromolar

Structure (SMILES)	activation, % of control, luciferase assay [1]	activation, % of control, murine assay [2]
c1ccc(C23NC(=Nc4nc5ccccc5[nH]4)NC2(c2ccccn2)NC(=Nc2nc4ccccc4[nH]2)N3)nc1 (stereo not shown) [Compound 1a, 2,5-Bis[2-benzimidazolylimino]-3a,6a-bis(2-pyridyl)-1,2,3,3a,4,5,6,6a-octahydroimidazo[4,5-d]imidazole]	above 150 % of control	above 150 % of control
Cc1ccc2nc(N=C3NC4(c5ccccn5)NC(=Nc5nc6ccccc6[nH]5)NC4(c4ccccn4)N3)[nH]c2c1.O=C(O)C(F)(F)F.O=C(O)C(F)(F)F (stereo not shown) [Compound 3a, 5-(2-benzimidazolylimino)-2-[(5-methyl-2-benzimidazolyl)imino]-3a,6a-bis(2-pyridyl)-1,2,3,3a,4,5,6,6a-octahydroimidazo[4,5-d]imidazole bis(trifluoroacetate) salt]	above 150 % of control	above 150 % of control
